Paper doi:10.1101/2021.05.26.444586
No constants are given. Whether binding was seen depends on the method and setting. In cells and extracts the contact can be indirect. Some entries that bind do so weakly or less than the wild type. Tags and fused reporters may be left off the sequences shown.

Molecular target: T1, MIM-FLAG (Mus musculus) (UniProt Q8R1S4)
T1 sequence: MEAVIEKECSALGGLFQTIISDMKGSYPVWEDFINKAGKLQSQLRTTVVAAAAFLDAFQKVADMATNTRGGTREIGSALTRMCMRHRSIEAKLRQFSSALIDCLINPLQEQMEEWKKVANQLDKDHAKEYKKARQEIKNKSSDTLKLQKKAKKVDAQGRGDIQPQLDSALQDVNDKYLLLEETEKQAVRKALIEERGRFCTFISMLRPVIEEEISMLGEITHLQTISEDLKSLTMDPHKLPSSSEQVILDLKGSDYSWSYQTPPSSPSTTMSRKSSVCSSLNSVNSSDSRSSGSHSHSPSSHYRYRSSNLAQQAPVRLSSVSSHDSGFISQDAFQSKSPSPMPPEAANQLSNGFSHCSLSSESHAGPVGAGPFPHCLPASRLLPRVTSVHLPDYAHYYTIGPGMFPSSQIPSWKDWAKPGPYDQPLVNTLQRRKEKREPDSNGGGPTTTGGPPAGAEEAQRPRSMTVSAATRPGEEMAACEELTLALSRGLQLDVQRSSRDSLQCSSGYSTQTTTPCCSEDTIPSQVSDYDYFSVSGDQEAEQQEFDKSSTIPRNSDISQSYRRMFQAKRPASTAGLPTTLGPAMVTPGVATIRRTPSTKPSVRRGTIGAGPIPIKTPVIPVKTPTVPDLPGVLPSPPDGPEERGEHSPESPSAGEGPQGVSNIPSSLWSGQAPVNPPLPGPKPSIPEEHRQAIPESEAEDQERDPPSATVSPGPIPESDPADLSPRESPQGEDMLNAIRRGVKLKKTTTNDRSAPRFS
Assay: co-IP

B1: full-length EVL (tagged, overexpressed) (protein, UniProt P70429 1-414)
chain: MSEQSICQARASVMVYDDTSKKWVPIKPGQQGFSRINIYHNTASSTFRVVGVKLQDQQVVINYSIVKGLKYNQATPTFHQWRDARQVYGLNFASKEEATTFSNAMLFALNIMNSQEGGPSTQRQVQNGPSPEEMDIQRRQVMEQQHRQESLERRISATGPILPPGHPSSAASTTLSCSGPPPPPPPPVPPPPTGSTPPPPPPLPAGGAQGTNHDESSASGLAAALAGAKLRRVQRPEDASGGSSPSGTSKSDANRASSGGGGGGLMEEMNKLLAKRRKAASQTDKPADRKEDESQTEDPSTSPSPGTRATSQPPNSSEAGRKPWERSNSVEKPVSSLLSRTPSVAKSPEAKSPLQSQPHSRVKPAGSVNDVGLDALDLDRMKQEILEEVVRELHKVKEEIIDAIRQELSGISTT
  binding: binds
